From patent US12178838B2, “Synthetic neuromodulatory peptides” (Lactocore, Inc., priority 2019, dated 2024)
For some of these results: At least one peptide structure holds a part that was inferred or is arguable (an end, a ring closure or a residue). For some of these results: At least one compound was matched to its structure with a doubt left. Residues, ends and D or L forms follow the SMILES beside them.

What was measured:
Assay type in all cases: in vivo
[1] = system: Sprague Dawley rats; details: FQSE 0.5 mg/kg i.n.; diazepam 2 mg/kg IP
Procedure: The five doses of FQSE (SEQ ID NO:10) (0.01, 0.1, 0.5, 1 and 3 mg/kg, CS, Menlo Park, CA) were prepared fresh for each test day in sterile saline and administered intranasally (i.n.) 30 minutes prior to testing. Fifteen rats per group per peptide dose were tested with the exception that there were twenty rats in the vehicle (0) group. Each dose was administered in a randomized order across rats. Prior to dosing, the rats were lightly anesthetized (till loss of righting reflex) with isoflurane (2.5%, 0.5 L/min oxygen), placed in the recumbent position, then a thin plastic pipette (Fischer Scientific) inserted into the nares and peptide administered at a volume of 15-20 uL per nares. […]
Open field tests occurred in open field apparatus constructed of gray Plexiglas (17″L×17″ W×12″ H (43.2 cm×43.2 cm×30.5 cm; Noldus, Leesburg, VA) with digital cameras positioned above the arenas to detect different measures of activity using specialized software (Ethovision, XT12). Rats were first allowed to acclimate to the testing room for 30 minutes while in their home cage. The test was initiated by placing the animal in the center of the open field chamber and behavior recorded for 30 minutes. The observer was not in the room during testing. Testing was conducted under red-light. Arenas were cleaned thoroughly between subjects with LpH disinfectant. […]

[2] = system: BALB/C mice; test: Bicuculline model: Porsolt swim test (two-day modification); details: bicuculline alone 5 mg/kg ip
[3] = system: BALB/C mice; test: Bicuculline model: Elevated Plus Maze test; details: bicuculline 5 mg/kg ip

Row | Compound | center zone entries [1] | total distance [1] | behavior of mice in the forced swim test [2] | differences in EPM test [3]
1 | NC(=O)CC[C@H](NC(=O)[C@@H](N)Cc1ccccc1)C(=O)N[C@@H](CO)C(=O)N[C@@H](CCC(=O)O)C(=O)O [FQSE] (H-FQSE-OH) | 54.2±8.3 | 5338±316.2 cm | – | –
2 | CN1CCc2cc3c(cc2[C@H]1[C@@H]1OC(=O)c2c1ccc1c2OCO1)OCO3 [bicuculline, Bicuculline, reference compound] | – | – | didn't affect | didn't observe any differences
